This assay in a line: qHTS Assay for Lipid Storage Modulators in Drosophila S3 Cells.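 For cell number change: cells counted by Cell Tracker Red CMTPX staining in the red channel.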 The note with it: BODIPY lipid droplet fluorescence, 18-24 h; for cell number change: measured here: cell count max response, cells fed with added oleic acid. Put shortly:
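Drosophila S3 cells got compounds at several concentrations plus oleic acid (400 uM solution). Laser-scanning cytometry with 488 nm excitation read lipid droplets at 500-530 nm and cells at 575-640 nm. Percent activity was relative to 20 uM Triacsin C.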
In general terms: In qHTS, concentration-response curves come from the screen itself.

Where [1] appears, read: measured here: lipid fluorescence (Fed channel) AC50, cells fed with added oleic acid.
The mark [2] stands for this setting: measured here: cell number channel AC50, cells fed with added oleic acid.

Each structure is given as a SMILES string. This is one part of the list. The main result of the screen is listed elsewhere. These columns were measured beside it and carry no call. Most of these compounds were active or inconclusive in the main read-out, so they are no random draw. Potencies come from curve fits of mixed quality, noted in brackets.

As for `O=C(/C=C/c1ccccc1)NC1CCS(=O)(=O)C1` (configuration not stated), the AC50 under setting [1] was 23.1 µM [rising, single point].
Turning to `CCOC(=O)c1ccc(N2C(=O)CC(N(C)Cc3ccccc3)C2=O)cc1` (configuration not stated), the cell number change came out at 7.97%.
Consider `N#CCC(=O)Nc1ccc(C(=O)NCCC(c2ccccc2)c2ccccc2)cc1`, for which the cell number change was -6.72%.
For `CCC(=O)N1CCc2cc(S(=O)(=O)N(CC)c3cccc(C)c3)ccc21`, the cell number change came out at 6.51%. In addition, the AC50 under setting [1] was 9.2 µM [rising, partial curve, poor fit].
For the compound `CCN(CC)CCN1C(=O)c2ccccc2NC1c1ccc(C)cc1` (configuration not stated), the AC50 under setting [1] is 6.51 µM [falling, single point].
For the compound `CCn1nc(C(=O)OCC(=O)c2c[nH]c3ccccc23)c2ccccc2c1=O`, the cell number change was -15.8%. For the same compound, under setting [1], the AC50 is 2.31 µM [rising, partial curve].
As to `CCOC(=O)[C@H]1[C@H]2COc3ccc(C)cc3[C@@H]2N2C(=O)CN(Cc3ccc(OC)cc3)C(=O)[C@@]12C`, the cell number change was -9.27%. For the same compound, the AC50 under setting [1] was 0.103 µM [rising, full curve, poor fit].
With `Clc1cccc(Nc2ncnc3c2cnn3-c2ccccc2)c1`, the cell number change is -161%. The half-maximal activity concentration (AC50) under setting [2] is 29.1 µM [falling, single point]. Moreover, the AC50 under setting [1] is 29.1 µM [falling, single point].
For the compound `Cc1c(C(=O)C(=O)N2c3ccccc3CC2C)c2ccccc2n1C` (configuration not stated), the cell number change is -64.2%. Moreover, the AC50 under setting [2] is 29.1 µM [falling, single point]. Moreover, the AC50 under setting [1] was 29.1 µM [falling, single point].
Consider `CCOC(=O)N1CCC(N2Cc3cccc(C(=O)O)c3C2=O)CC1`, for which the cell number change was -22.7%. Also, the AC50 under setting [2] was 0.82 µM [falling, full curve, poor fit]. Besides, the AC50 under setting [1] is 4.61 µM [falling, single point].
For `Cc1ccc(-c2cc(C(=O)Nc3ccc(S(=O)(=O)Nc4onc(C)c4C)cc3)c3ccccc3n2)cc1`, the AC50 runs as follows: under setting [2], 5.17 µM [rising, single point]; under setting [1], 6.51 µM [rising, partial curve].
`COC(=O)C1C(c2ccc(N(C)C)cc2)C(C(=O)OC)S(=O)(=O)CS1(=O)=O` (configuration not stated): the cell number change is -27.2%.
`COc1ccc2cc(C3c4cc(OC)c(OC)cc4CCN3C(=O)c3ccco3)c(=O)[nH]c2c1` (configuration not stated): the cell number change is -15.4%. The AC50 under setting [1] is 0.116 µM [falling, partial curve, poor fit].
In the case of `CC1CCC2(CC1)NC(=S)N(c1ccccc1)N2` (configuration not stated), the cell number change amounted to 9.61%. Under setting [1], the AC50 was 0.164 µM [falling, full curve, poor fit].
Consider `CC(C)n1c(CN(C)Cc2ccccc2)nc2c1c(=O)n(C)c(=O)n2C`, for which the cell number change is -53.9%. Further, the AC50 under setting [2] was 4.11 µM [falling, partial curve]. The AC50 under setting [1] was 4.11 µM [falling, full curve, poor fit].
In the case of `CCc1nc2scc(-c3ccc(C)cc3)c2c(=O)n1N`, the cell number change amounted to 17.1%. Under setting [1], the concentration at half-maximal activity (AC50) was 0.146 µM [rising, full curve, poor fit].
Turning to `CCOC(=O)/C=C/C(=O)N1CCN(C(=O)/C=C/C(=O)OCC)CC1`, the cell number change is -20%. Besides, under setting [1], the half-maximal activity concentration (AC50) is 4.11 µM [falling, full curve, poor fit].
On to `O=C(Cc1ccccc1)Nc1ccc(NC(=O)c2ccccc2)nc1`, for which the cell number change turned out to be 83.3%. Besides, the AC50 under setting [2] was 25.9 µM [rising, partial curve].
`COc1cc(C2=NOC(C(=O)NC3CCCCC3)C2)cc(OC)c1OC` (configuration not stated): the cell number change was determined as 16.7%.
For the compound `CCN(CC)C(=O)c1sc(NC(=O)c2ccncc2)c(C(=O)OC)c1C`, the AC50 is, setting by setting: under setting [2], 0.411 µM [rising, partial curve, poor fit]; under setting [1], 0.461 µM [rising, full curve].
Consider `CCOc1ccc(C)cc1S(=O)(=O)NC1CCCCCC1`, for which the cell number change turned out to be 26.9%. Moreover, the AC50 under setting [1] is 1.26 µM [rising, full curve].
As for `CCN(CC)c1ccc(/C=N/NC(=O)c2nnn(-c3nonc3N)c2-c2ccc(C)cc2)cc1`, the cell number change was -0.295%. The AC50 under setting [1] was 0.58 µM [rising, full curve].
With `C/C(=N\NC(=O)c1cccc([N+](=O)[O-])c1)c1ccco1`, the cell number change turned out to be 1.05%. Also, under setting [1], the AC50 was 18.4 µM [rising, single point].
`COc1ccc(-n2c(Cc3cccn3C)nnc2SCC(=O)Nc2cccc(OC)c2)cc1`: the cell number change is 3.27%. Further, the AC50 under setting [1] is 7.31 µM [rising, partial curve].
As for `Cc1ccc(C(=O)Nc2ccc(N3CCN(C(=O)c4ccco4)CC3)cc2)c(Cl)c1`, the cell number change is -9.21%. For the same compound, the AC50 under setting [1] was 3.55 µM [rising, single point].
For the compound `CC(C)(C)c1ccc(C(=O)Nc2cnccn2)cc1`, the cell number change amounted to 5.78%.
Regarding `C#CCOc1ccc2ccccc2c1/C=C(/C#N)c1ccc(C(=O)O)cc1`, the cell number change worked out at 13.8%. Also, the AC50 under setting [1] is 1.64 µM [falling, single point].
For the compound `Cc1cc(C)c(NC(=O)C(C)(C)C)c(Cl)c1`, the cell number change was -30%. The AC50 under setting [2] is 11.6 µM [falling, single point]. For the same compound, the AC50 under setting [1] was 29.1 µM [falling, single point].
Take `Cn1c(SCC(=O)Nc2cccnc2)nnc1-c1ccccc1F`: under setting [2], the AC50 is 6.51 µM [falling, single point].
`CCN1CCN=C1Nc1ccccc1`: the cell number change was -36.7%. Also, the AC50 under setting [2] is 20.6 µM [falling, single point]. Under setting [1], the AC50 is 29.1 µM [falling, single point].
As for `Cc1cccc(C(=O)OC(C)C(=O)NC(=O)NC2CCCCC2)c1O` (configuration not stated), the cell number change is -24.3%.
Same read-out and setting: the figure for `Cc1ccc(C)c(Nc2cc(C)nc3ncnn23)c1` is 1.47%.
With `CCOC(=O)c1cnc2c(C#N)c(C)nn2c1-c1ccccc1`, the cell number change is -6.67%. Moreover, under setting [1], the AC50 was 20.6 µM [rising, single point].
Take `CCOC(=O)C1C(c2ccccc2)N(C)OC1(O)C(F)(F)F` (configuration not stated): the cell number change is -5.93%.
With `CC(=O)Nc1cc(N=Cc2ccc(O)cc2O)c(Cl)cc1Cl`, the cell number change was -12.4%. Also, the AC50 under setting [1] is 29.1 µM [rising, single point].
In the case of `CC(Oc1ccc(Cl)cc1Cl)c1nc(-c2ccc(NC(=O)c3ccco3)cc2)no1` (configuration not stated), under setting [2], the half-maximal activity concentration (AC50) is 2.06 µM [rising, partial curve].
`Cc1c(C(=O)NCc2ccc3c(c2)OCO3)sc2nc(-c3ccc(F)cc3)cn12`: the cell number change came to 42%. For the same compound, the AC50 under setting [2] was 0.13 µM [rising, full curve, poor fit]. Besides, the AC50 under setting [1] was 0.13 µM [rising, full curve, poor fit].
As to `CCn1cc(/C=N/NC(=O)COc2cccc3cccnc23)c2ccccc21`, the cell number change is -65.3%. Besides, the AC50 under setting [2] is 32.6 µM [falling, single point]. Also, the AC50 under setting [1] is 2.31 µM [rising, partial curve, poor fit].

As usually defined, the AC50 is the concentration giving half of the maximal activity seen.
